Results on 36 targets are retold here after the supplement of paper PMC7666118.

Amino acid sequences for entries named in this document (tags omitted). A change or cut given only in a name is not applied to a line headed by its entry.
UniProt Q08211, whole entry: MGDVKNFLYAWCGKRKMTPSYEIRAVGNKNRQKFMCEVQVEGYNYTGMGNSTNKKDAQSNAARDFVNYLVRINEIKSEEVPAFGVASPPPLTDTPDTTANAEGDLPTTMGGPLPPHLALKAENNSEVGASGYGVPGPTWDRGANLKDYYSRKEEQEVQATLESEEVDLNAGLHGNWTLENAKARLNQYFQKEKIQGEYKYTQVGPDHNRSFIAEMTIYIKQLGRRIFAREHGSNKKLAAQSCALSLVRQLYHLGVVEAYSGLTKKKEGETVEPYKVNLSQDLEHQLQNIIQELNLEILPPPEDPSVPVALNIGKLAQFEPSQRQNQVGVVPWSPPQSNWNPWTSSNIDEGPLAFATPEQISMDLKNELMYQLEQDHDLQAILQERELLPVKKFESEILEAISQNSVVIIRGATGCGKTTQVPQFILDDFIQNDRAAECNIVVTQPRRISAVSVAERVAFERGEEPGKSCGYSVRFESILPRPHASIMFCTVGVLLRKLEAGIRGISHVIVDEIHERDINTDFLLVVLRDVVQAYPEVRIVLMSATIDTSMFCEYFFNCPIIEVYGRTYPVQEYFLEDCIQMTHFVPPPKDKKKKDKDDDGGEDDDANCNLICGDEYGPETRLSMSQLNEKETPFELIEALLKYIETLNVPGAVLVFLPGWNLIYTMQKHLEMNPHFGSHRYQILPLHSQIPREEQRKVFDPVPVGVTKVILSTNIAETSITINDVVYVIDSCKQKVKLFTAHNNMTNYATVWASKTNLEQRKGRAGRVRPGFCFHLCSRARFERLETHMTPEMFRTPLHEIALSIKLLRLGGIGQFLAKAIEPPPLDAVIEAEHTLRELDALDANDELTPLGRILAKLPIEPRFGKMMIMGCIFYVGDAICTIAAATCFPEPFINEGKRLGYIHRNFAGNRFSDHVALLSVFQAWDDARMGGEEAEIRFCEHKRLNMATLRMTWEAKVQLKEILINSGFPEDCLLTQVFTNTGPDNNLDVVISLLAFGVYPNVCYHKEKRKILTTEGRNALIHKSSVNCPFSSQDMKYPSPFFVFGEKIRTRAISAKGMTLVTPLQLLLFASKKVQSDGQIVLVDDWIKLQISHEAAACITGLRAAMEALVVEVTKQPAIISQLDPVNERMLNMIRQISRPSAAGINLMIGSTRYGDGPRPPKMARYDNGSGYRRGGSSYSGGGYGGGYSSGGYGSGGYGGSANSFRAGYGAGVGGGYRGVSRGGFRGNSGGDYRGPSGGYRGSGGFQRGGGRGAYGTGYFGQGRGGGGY
UniProt O14641: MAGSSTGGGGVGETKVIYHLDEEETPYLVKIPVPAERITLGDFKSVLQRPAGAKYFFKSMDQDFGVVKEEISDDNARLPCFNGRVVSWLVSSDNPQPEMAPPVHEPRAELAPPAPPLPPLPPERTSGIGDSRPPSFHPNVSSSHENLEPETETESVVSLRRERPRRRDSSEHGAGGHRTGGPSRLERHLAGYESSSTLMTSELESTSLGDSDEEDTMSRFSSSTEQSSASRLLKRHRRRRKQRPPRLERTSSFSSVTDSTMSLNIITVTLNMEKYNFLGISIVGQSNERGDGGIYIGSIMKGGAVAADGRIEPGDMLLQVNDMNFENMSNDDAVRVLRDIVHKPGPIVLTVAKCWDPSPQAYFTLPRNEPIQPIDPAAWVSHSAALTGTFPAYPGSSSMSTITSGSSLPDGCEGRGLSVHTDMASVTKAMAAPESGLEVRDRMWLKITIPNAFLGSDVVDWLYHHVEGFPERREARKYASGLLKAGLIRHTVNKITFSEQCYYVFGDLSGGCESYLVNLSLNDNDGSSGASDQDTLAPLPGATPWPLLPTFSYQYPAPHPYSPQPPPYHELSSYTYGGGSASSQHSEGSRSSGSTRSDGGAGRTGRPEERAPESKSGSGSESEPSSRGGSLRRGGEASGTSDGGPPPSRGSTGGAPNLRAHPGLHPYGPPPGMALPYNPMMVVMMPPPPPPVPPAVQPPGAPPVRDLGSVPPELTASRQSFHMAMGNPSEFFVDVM
UniProt Q16527: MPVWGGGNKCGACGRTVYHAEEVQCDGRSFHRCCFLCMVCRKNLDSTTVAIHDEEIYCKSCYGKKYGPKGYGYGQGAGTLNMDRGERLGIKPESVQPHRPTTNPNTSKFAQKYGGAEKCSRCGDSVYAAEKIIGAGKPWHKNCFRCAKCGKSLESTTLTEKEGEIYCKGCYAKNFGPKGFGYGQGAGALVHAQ
UniProt P78352, whole entry, looked up: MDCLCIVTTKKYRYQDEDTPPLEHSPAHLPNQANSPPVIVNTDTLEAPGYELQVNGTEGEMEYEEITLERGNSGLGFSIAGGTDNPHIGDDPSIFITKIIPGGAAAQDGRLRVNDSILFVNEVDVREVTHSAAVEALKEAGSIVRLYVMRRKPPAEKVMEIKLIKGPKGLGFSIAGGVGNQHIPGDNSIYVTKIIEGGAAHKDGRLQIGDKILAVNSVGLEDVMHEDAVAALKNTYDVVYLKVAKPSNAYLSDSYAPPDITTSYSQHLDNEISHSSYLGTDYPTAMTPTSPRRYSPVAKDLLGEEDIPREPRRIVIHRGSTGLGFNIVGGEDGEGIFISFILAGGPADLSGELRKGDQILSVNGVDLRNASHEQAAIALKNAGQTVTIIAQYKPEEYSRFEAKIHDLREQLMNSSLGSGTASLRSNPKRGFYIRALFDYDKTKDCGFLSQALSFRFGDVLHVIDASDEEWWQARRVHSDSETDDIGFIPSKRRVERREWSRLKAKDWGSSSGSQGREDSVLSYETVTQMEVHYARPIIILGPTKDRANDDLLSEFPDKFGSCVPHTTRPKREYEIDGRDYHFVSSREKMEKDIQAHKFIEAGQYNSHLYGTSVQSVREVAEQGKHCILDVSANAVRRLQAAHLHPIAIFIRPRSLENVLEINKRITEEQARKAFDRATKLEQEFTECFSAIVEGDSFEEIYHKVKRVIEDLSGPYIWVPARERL
UniProt Q7L576: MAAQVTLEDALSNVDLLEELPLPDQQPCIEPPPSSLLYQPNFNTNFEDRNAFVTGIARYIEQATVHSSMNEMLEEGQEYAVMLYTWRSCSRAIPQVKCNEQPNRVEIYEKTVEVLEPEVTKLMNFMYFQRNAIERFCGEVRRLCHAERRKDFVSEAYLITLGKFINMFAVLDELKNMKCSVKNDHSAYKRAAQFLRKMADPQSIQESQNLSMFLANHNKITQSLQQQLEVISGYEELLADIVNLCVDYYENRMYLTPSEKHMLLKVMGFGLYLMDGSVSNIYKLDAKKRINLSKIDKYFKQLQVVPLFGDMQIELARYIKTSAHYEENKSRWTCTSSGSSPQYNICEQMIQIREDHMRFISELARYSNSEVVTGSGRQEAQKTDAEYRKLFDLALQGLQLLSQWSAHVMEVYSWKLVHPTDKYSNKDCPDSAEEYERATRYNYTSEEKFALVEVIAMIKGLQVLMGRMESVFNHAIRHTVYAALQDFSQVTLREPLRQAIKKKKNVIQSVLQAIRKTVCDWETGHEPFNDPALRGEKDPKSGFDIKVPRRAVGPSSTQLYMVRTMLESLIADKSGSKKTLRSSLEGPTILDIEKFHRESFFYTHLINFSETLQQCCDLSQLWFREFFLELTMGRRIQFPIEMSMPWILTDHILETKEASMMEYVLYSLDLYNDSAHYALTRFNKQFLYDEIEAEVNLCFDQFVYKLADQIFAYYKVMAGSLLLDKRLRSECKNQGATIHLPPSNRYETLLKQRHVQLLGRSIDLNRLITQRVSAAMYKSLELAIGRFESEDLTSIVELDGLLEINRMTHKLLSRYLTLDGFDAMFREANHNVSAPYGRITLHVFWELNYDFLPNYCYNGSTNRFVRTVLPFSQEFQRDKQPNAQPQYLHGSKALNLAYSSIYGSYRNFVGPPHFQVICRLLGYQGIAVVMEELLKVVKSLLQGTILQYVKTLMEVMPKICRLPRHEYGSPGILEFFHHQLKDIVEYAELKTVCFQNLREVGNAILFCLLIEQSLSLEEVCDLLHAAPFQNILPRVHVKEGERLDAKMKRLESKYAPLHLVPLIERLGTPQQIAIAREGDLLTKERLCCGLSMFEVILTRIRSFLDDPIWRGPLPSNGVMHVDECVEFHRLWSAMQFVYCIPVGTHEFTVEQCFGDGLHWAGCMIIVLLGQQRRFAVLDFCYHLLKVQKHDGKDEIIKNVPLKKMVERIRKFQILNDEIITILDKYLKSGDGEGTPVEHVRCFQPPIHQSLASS
UniProt Q05639, whole entry: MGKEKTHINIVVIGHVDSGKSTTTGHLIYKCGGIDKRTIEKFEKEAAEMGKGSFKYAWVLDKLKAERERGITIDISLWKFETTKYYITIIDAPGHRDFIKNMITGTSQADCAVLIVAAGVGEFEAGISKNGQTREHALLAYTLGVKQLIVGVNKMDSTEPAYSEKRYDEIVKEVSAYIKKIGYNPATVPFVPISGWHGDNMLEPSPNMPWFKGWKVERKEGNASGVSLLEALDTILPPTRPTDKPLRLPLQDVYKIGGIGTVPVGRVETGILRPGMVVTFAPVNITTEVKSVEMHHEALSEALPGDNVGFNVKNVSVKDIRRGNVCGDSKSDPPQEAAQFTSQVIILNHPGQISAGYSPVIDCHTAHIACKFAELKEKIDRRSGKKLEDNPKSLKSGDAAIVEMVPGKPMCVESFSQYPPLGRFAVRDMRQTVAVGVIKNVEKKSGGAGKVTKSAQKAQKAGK
UniProt Q9BTE1, whole entry: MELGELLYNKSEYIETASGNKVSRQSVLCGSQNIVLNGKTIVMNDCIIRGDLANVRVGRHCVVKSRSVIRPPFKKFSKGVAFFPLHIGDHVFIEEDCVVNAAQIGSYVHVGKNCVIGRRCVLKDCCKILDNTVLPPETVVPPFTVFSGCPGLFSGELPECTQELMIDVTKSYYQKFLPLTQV
UniProt Q9BQC3: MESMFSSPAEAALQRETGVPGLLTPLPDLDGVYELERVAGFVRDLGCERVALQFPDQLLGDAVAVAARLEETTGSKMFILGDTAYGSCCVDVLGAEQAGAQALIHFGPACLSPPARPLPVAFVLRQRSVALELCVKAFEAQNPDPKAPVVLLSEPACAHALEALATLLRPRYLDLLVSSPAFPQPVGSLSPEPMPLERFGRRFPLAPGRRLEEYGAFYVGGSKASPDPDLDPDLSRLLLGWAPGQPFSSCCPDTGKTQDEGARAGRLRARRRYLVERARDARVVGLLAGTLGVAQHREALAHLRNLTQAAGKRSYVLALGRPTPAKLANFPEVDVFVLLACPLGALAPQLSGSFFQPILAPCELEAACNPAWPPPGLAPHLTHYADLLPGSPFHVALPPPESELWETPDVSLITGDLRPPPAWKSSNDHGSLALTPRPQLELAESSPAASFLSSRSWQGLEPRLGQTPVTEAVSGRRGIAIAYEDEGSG
UniProt Q9NV06: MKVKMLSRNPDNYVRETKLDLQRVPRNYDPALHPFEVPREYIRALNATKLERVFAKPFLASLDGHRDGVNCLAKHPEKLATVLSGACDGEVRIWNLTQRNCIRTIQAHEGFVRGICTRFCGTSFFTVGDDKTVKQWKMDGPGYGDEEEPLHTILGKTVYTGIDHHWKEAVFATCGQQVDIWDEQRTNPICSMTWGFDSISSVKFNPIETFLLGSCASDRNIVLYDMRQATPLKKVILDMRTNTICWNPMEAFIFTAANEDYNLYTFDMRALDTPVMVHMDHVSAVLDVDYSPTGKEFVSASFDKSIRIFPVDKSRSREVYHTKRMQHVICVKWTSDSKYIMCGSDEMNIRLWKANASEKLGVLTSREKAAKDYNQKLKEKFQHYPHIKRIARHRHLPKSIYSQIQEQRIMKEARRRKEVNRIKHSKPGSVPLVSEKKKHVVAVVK
UniProt O76075: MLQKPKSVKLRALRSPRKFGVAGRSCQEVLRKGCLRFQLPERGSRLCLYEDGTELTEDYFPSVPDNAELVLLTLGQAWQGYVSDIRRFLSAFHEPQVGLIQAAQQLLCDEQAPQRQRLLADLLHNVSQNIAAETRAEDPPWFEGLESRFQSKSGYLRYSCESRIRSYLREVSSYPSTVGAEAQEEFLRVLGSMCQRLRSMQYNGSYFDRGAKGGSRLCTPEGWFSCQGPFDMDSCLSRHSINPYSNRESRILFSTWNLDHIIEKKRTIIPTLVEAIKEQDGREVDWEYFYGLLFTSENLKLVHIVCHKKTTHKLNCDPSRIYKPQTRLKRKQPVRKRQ
UniProt Q9Y6V7: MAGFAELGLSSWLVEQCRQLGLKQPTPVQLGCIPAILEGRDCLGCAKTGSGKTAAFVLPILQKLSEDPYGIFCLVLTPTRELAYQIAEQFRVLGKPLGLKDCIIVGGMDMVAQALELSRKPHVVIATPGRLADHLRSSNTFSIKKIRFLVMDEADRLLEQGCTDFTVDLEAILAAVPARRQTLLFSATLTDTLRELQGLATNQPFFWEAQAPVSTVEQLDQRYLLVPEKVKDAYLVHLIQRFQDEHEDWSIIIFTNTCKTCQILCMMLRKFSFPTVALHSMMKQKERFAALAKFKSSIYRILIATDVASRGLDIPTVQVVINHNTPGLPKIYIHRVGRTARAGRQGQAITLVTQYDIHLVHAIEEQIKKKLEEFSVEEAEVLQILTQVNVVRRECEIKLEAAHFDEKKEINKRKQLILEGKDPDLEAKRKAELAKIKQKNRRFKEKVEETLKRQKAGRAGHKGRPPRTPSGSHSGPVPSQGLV

The list shows a part of the results.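 Rule for the calls: active = dose-dependent thermal stabilisation significant by F-test of dose-response against flat model at 10% FDR; inactive = not significant.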

Compound in the test: Nc1nc2c(ncn2[C@@H]2O[C@H](COP(=O)(O)OP(=O)(O)OP(=O)(O)O)[C@@H](O)[C@H]2O)c(=O)[nH]1
Briefly: dose-dependent thermal stabilisation call (2D-TPP, DLPTP, 10% FDR) (binary (1 = stabilised)); higher = stabilised by the compound. The conditions noted are these: system: Jurkat gel-filtered lysate; concentration range 1-500 µM.
As for DDX58 (UniProt O95786), the “dose-dependent thermal stabilisation call” value is inactive: 0. For DHX9 (UniProt Q08211), the “dose-dependent thermal stabilisation call” value is inactive: 0.

For the target DVL2 (UniProt O14641), the “dose-dependent thermal stabilisation call” value was inactive: 0.

Turning to CSRP2 (UniProt Q16527), the “dose-dependent thermal stabilisation call” value was inactive: 0. Next, ECI2 (UniProt O75521): inactive: 0; DLG4 (UniProt P78352): inactive: 0; DDRGK1 (UniProt Q96HY6): inactive: 0. Regarding CYFIP1 (UniProt Q7L576), the “dose-dependent thermal stabilisation call” value was inactive: 0. Turning to EEF1A2 (UniProt Q05639), the “dose-dependent thermal stabilisation call” value is inactive: 0. Consider DFFA (UniProt O00273), for which the “dose-dependent thermal stabilisation call” value was inactive: 0. For the target DCTN5 (UniProt Q9BTE1), the “dose-dependent thermal stabilisation call” value is inactive: 0. As for DPH2 (UniProt Q9BQC3), the “dose-dependent thermal stabilisation call” value is active: 1. The same measure for DPP9 (UniProt Q86TI2): inactive: 0; for DENND6A (UniProt Q8IWF6): inactive: 0; for DPYD (UniProt Q12882): inactive: 0. In the case of DCAF13 (UniProt Q9NV06), the “dose-dependent thermal stabilisation call” value was inactive: 0. Next, CTNNA1 (UniProt P35221): inactive: 0; DFFB (UniProt O76075): inactive: 0. Take DSN1 (UniProt Q9H410): the “dose-dependent thermal stabilisation call” value is inactive: 0. Regarding CXorf38 (UniProt Q8TB03), the “dose-dependent thermal stabilisation call” value is inactive: 0. With DDX49 (UniProt Q9Y6V7), the “dose-dependent thermal stabilisation call” value was active: 1. On to DTWD1 (UniProt Q8N5C7), for which the “dose-dependent thermal stabilisation call” value was active: 1. Take DRG1 (UniProt Q9Y295): the “dose-dependent thermal stabilisation call” value is active: 1. Next, DSTN (UniProt P60981): inactive: 0; DOK1 (UniProt Q99704): inactive: 0.

CTSA (UniProt P10619): the “dose-dependent thermal stabilisation call” value is inactive: 0. In the case of CUEDC2 (UniProt Q9H467), the “dose-dependent thermal stabilisation call” value was inactive: 0. In the case of CTU1 (UniProt Q7Z7A3), the “dose-dependent thermal stabilisation call” value was inactive: 0. With DHRS4 (UniProt Q9BTZ2), the “dose-dependent thermal stabilisation call” value was inactive: 0. DDX11 (UniProt Q96FC9): the “dose-dependent thermal stabilisation call” value is active: 1. Consider CYHR1 (UniProt P0DTL5), for which the “dose-dependent thermal stabilisation call” value is inactive: 0.

On to DENND4A (UniProt Q7Z401), for which the “dose-dependent thermal stabilisation call” value was inactive: 0. CRIP1 (UniProt P50238): the “dose-dependent thermal stabilisation call” value is inactive: 0. Take CREBBP (UniProt Q92793): the “dose-dependent thermal stabilisation call” value was inactive: 0. As to CTBP1 (UniProt Q13363), the “dose-dependent thermal stabilisation call” value is inactive: 0. With EARS2 (UniProt Q5JPH6), the “dose-dependent thermal stabilisation call” value was inactive: 0.
